Results on 17 compounds are retold here after PubChem BioAssay AID330 (DTP/NCI, 2004).

The test has as its system P388 leukemia ip, CD2F1 mice, survival T/C. Description: NCI In Vivo Anticancer Drug Screen. Data for tumor model P388 Leukemia (intraperitoneal) in CD2F1 (CDF1) mice. As to conditions: T/C endpoint: median survival time, higher T/C = longer survival.
Setting [1] is: dose: 400.0 mg/kg/injection, schedule: Q04DX003 (ip), vehicle: saline with Tween-80.
The mark [2] stands for this setting: dose: 100.0 mg/kg/injection, schedule: Q01DX009 (ip), vehicle: saline with Tween-80.
Setting [3] is: dose: 200.0 mg/kg/injection, schedule: Q01DX009 (ip), vehicle: saline with Tween-80.
Setting [4] is: dose: 100.0 mg/kg/injection, schedule: Q01DX005 (ip), vehicle: saline with Tween-80.
Setting [5] is: dose: 200.0 mg/kg/injection, schedule: Q01DX005 (ip), vehicle: saline with Tween-80.

Structures are written as SMILES. The list does not hold the whole screen: it is rich in T/C values a quarter to a half above the control, in often repeated tests (any T/C) and in doses without a T/C. Further doses and runs are listed elsewhere. T/C is the treated group as % of the vehicle group. Some entries give survivors of the animals treated and no T/C: the source files T/C as zero there, which appears to mark a toxic dose or a test without result, not a measured value. Some survivor counts are full or nearly so, which does not show that the dose was tolerated: the source hardly ever lists a survival T/C far under the control, and the zero likely stands for such cases as well. Counts of survivors are from the toxicity check (mostly the fifth day) where no day follows; animals may have died later. Schedule codes are those of the source, taken here to give the interval after Q, in days (D) or hours (H), and the number of doses after X. Some entries hold several experiments; the values are given in rising order. Where survival is the endpoint, this PubChem deposit counts one and a half times the control or more as active, and values a quarter to a half above the control carry no call in these data; other NCI protocols may use other cut-offs. Some T/C values are followed by the survivors on the day toxicity was checked, most often the fifth; without a count, all were alive then.

On to `COc1cccc2c1C(=O)c1c(O)c3c(c(O)c1C2=O)CC(O)(C(C)NCCN(C)C)CC3OC1CC(N)C(O)C(C)O1` (stereo not drawn), for which the T/C (dose: 2.5 mg/kg/injection, schedule: Q01DX009 (ip), vehicle: water) was 125 % of control; the T/C (dose: 5.0 mg/kg/injection, schedule: Q01DX009 (ip), vehicle: other) is 130 % of control; the T/C (dose: 5.0 mg/kg/injection, schedule: Q01DX009 (ip), vehicle: water) is 134 % of control; the T/C (dose: 10.0 mg/kg/injection, schedule: Q01DX009 (ip), vehicle: other) is 144 % of control; the T/C (dose: 10.0 mg/kg/injection, schedule: Q01DX009 (ip), vehicle: water) was 125 % of control; the T/C (dose: 20.0 mg/kg/injection, schedule: Q01DX009 (ip), vehicle: water) is 139 % of control. Besides, where the note is “dose: 80.0 mg/kg/injection, schedule: Q01DX009 (ip), vehicle: other”, the T/C was 148 % of control.
Regarding `CCCCNC1=CC(=O)c2ccccc2C1=O`, the survivor count under setting [1] is 5 of 6.
As for `CSC(=S)N/N=C/c1ccccn1`, the survivor count is 6 of 6 (dose: 50.0 mg/kg/injection, schedule: Q01DX009 (ip), vehicle: saline with Tween-80); 2 of 6 and 5 of 6 under setting [2]; 4 of 6 under setting [3].
With `NCc1cc(=O)[nH]o1`, the survivor count (dose: 200.0 mg/kg/injection, schedule: Q01DX009 (ip), vehicle: saline) is on record as 6 of 6.
Regarding `C#CCNC1=C(C)C(=O)C2=C(C1=O)[C@H](COC(N)=O)[C@]1(OC)[C@@H]3N[C@@H]3CN21`, the T/C was 129 % of control (dose: 3.0 mg/kg/injection, schedule: Q01DX001 (ip), vehicle: distilled water + Tween-80); 135 % of control (dose: 6.0 mg/kg/injection, schedule: Q01DX001 (ip), vehicle: distilled water + Tween-80); 145 % of control (dose: 12.0 mg/kg/injection, schedule: Q01DX001 (ip), vehicle: distilled water + Tween-80); 129 % of control [5 of 6 alive] (dose: 24.0 mg/kg/injection, schedule: Q01DX001 (ip), vehicle: distilled water + Tween-80).
For the compound `CCCCCCCCCCCCCCCCCC1=NC(C)CC(C)(C)O1` (stereo not drawn), the survivor count (dose: 400.0 mg/kg/injection, schedule: Q01DX009 (ip), vehicle: saline) is recorded as 5 of 6.
Turning to `NCC1CC2CCC1CC2` (stereo not drawn), the survivor count under setting [4] is 4 of 6 and the survivor count under setting [5] is on record as 0 of 6.
In the case of `Cc1ncc(/C=C/C(=O)O)c(C=O)c1O`, the survivor count is, setting by setting: (dose: 100.0 mg/kg/injection, schedule: Q04DX003 (ip), vehicle: saline with Tween-80) 0 of 6; (dose: 200.0 mg/kg/injection, schedule: Q04DX003 (ip), vehicle: saline with Tween-80) 0 of 6; under setting [1], 0 of 6.
As for `CC(CN(C)C)Oc1ccccc1NC1=C(Cl)C(=O)C(Nc2ccccc2OC(C)CN(C)C)=C(Cl)C1=O` (stereo not drawn), the survivor count (dose: 40.0 mg/kg/injection, schedule: Q01DX009 (ip), vehicle: saline) is 1 of 6 and 3 of 6.
With `Nc1ccc(S(=O)(=O)n2c(=O)oc3cc(Cl)ccc32)cc1`, the survivor count runs as follows: (dose: 100.0 mg/kg/injection, schedule: Q01DX005 (ip), vehicle: Klucel (hydroxypropylcellulose) (HPC)) 6 of 6; (dose: 200.0 mg/kg/injection, schedule: Q01DX005 (ip), vehicle: Klucel (hydroxypropylcellulose) (HPC)) 6 of 6.
`CCC(CC)NCCCNc1cc(OC)cc2cccnc12`: the survivor count is 3 of 6 (dose: 50.0 mg/kg/injection, schedule: Q01DX005 (ip), vehicle: saline); 0 of 6 (dose: 100.0 mg/kg/injection, schedule: Q01DX005 (ip), vehicle: saline); 0 of 6 (dose: 200.0 mg/kg/injection, schedule: Q01DX005 (ip), vehicle: saline).
Take `CCOc1ccc2c(N/N=C/c3ccc(N(CCCl)CCCl)cc3)cc(C)nc2c1`: the survivor count under setting [2] is on record as 5 of 6 and the survivor count under setting [3] was 6 of 6.
Turning to `O=c1sc2ccccc2nc1NNc1ccccc1`, the survivor count under setting [5] is recorded as 6 of 6.
With `O=C1c2cccc3cccc(c23)C(=O)N1c1ncn[nH]1`, the survivor count is given as 6 of 6 (dose: 25.0 mg/kg/injection, schedule: Q01DX005 (ip), vehicle: saline with Tween-80); 5 of 6 (dose: 50.0 mg/kg/injection, schedule: Q01DX005 (ip), vehicle: saline with Tween-80); 6 of 6 under setting [4].
In the case of `O=C1NC2(CCCCC2)C(=O)N1CCCN(CCCl)CCCl`, the T/C (dose: 1.5 mg/kg/injection, schedule: Q01DX005 (ip), vehicle: saline) was 142 % of control; the T/C (dose: 3.0 mg/kg/injection, schedule: Q01DX005 (ip), vehicle: saline) was 136 and 149 % of control. Besides, the survivor count (dose: 24.0 mg/kg/injection, schedule: Q01DX005 (ip), vehicle: saline) is recorded as 5 of 6.
Take `COc1ccc(C(=O)C2C(=O)C(=O)OC2C2OC(=O)C(=O)C2C(=O)c2ccc(OC)cc2)cc1` (stereo not drawn): the survivor count by setting is: (dose: 120.0 mg/kg/injection, schedule: Q01DX005 (ip), vehicle: saline) 3 of 6; (dose: 240.0 mg/kg/injection, schedule: Q01DX005 (ip), vehicle: saline) 3 of 6.
Consider `CCCCCCCC(=O)OCC(=O)[C@]1(O)Cc2c(O)c3c(c(O)c2[C@@H](OC2CC(N)C(O)C(C)O2)C1)C(=O)c1c(OC)cccc1C3=O` (stereo partly drawn), for which the T/C was 136 % of control (dose: 0.5 mg/kg/injection, schedule: Q01DX009 (ip), vehicle: saline with Tween-80) and 136 % of control (dose: 1.0 mg/kg/injection, schedule: Q01DX009 (ip), vehicle: saline with Tween-80). Besides, the survivor count is, setting by setting: (dose: 8.0 mg/kg/injection, schedule: Q01DX009 (ip), vehicle: saline with Tween-80) 10 of 10; (dose: 8.0 mg/kg/injection, schedule: Q01DX009 (ip), vehicle: water) 5 of 6.
